Some of the results follow.
The targets below were run with c1cn2cc(-c3ccc4cn[nH]c4c3)nc(Nc3ccc(N4CCOCC4)cc3)c2n1 [entospletinib] (assay: log2 fold change, soluble protein after heating vs DMSO (PISA); higher = thermal stabilisation; K562 lysate, 10 uM; active = over 0.2 and 3.5 SD of the protein, either way, in both replicates (recomputed)).
In short: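 Soluble protein was defined as the supernatant remaining after 21,000xg for 90 min, following pooling of heated aliquots and adjustment to 0.5% NP-40 at 4°C. Before that, crude K562 extract at 1 mg/mL protein in PBS pH 7.4 with 1 mM MgCl2 was treated with 10 μM compound for 30 min and heated for 3 min across 48°C-58°C. Quantification used TMTpro 16plex LC-MS/MS with channel sums equalised, and values are log-two fold changes in thermal stability relative to solvent controls from duplicates.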

Protein sequences, listed by entry. Tags and fused reporters are not part of them. Lines headed by an entry give the natural chain unless they say otherwise; changes in a name come on top.
UniProt P27824: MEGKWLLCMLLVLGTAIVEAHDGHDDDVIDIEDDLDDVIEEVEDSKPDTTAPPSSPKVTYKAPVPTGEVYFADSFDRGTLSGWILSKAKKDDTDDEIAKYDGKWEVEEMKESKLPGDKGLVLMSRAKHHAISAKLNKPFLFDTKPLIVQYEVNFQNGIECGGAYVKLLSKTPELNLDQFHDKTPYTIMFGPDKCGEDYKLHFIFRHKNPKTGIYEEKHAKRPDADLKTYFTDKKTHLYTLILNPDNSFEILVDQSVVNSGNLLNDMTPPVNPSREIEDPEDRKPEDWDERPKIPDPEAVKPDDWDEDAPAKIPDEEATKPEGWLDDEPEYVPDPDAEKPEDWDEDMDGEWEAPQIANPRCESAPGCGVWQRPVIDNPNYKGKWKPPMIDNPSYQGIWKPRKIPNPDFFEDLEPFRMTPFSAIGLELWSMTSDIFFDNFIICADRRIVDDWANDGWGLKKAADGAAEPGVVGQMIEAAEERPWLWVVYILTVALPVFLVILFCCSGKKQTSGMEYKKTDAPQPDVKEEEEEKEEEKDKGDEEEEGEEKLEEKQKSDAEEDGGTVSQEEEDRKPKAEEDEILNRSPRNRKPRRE
UniProt Q9BVC5: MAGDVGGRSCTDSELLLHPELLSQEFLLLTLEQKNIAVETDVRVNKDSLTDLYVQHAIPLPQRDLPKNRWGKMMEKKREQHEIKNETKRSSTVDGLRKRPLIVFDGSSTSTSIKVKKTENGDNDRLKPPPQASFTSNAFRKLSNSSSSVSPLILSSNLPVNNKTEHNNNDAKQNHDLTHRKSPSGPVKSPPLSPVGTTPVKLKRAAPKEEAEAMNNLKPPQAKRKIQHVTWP
UniProt Q8IXQ3: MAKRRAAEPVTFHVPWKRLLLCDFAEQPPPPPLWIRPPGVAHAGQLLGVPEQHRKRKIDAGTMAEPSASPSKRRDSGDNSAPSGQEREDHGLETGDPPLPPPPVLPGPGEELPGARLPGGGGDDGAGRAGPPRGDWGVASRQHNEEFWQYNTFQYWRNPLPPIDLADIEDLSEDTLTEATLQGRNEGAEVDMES
UniProt Q8WUR7: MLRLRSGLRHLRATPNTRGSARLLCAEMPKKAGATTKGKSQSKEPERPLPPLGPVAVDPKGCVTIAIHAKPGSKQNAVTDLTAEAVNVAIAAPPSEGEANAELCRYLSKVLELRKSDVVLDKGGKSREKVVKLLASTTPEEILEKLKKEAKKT
UniProt O43852: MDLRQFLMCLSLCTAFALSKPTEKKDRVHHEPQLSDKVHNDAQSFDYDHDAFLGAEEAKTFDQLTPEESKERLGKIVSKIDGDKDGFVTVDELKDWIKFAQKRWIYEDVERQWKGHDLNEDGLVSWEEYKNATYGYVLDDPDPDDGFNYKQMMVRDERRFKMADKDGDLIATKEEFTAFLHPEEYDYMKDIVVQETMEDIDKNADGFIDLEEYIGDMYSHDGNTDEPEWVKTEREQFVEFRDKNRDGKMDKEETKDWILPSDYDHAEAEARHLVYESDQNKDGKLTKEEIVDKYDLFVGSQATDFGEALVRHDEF
UniProt Q9BPX7: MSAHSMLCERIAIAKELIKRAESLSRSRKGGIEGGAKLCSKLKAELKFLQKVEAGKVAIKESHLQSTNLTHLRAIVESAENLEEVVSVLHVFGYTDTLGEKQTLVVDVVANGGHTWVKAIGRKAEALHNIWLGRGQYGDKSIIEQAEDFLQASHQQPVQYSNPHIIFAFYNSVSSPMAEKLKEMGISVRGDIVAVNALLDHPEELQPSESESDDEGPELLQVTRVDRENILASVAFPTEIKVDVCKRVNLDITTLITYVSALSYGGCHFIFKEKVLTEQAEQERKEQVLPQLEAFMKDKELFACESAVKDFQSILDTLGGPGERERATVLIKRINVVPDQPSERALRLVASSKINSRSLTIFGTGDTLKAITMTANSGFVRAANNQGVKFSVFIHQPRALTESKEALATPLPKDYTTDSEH
UniProt P40121: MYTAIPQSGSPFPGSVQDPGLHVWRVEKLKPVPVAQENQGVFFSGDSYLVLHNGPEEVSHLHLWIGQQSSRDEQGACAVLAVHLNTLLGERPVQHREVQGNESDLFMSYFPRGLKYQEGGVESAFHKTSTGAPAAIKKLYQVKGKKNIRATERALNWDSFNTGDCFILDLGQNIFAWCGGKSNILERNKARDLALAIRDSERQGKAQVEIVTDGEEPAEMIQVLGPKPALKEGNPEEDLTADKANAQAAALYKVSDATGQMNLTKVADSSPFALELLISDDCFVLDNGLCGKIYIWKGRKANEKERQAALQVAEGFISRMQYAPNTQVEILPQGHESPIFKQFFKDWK
UniProt P07384: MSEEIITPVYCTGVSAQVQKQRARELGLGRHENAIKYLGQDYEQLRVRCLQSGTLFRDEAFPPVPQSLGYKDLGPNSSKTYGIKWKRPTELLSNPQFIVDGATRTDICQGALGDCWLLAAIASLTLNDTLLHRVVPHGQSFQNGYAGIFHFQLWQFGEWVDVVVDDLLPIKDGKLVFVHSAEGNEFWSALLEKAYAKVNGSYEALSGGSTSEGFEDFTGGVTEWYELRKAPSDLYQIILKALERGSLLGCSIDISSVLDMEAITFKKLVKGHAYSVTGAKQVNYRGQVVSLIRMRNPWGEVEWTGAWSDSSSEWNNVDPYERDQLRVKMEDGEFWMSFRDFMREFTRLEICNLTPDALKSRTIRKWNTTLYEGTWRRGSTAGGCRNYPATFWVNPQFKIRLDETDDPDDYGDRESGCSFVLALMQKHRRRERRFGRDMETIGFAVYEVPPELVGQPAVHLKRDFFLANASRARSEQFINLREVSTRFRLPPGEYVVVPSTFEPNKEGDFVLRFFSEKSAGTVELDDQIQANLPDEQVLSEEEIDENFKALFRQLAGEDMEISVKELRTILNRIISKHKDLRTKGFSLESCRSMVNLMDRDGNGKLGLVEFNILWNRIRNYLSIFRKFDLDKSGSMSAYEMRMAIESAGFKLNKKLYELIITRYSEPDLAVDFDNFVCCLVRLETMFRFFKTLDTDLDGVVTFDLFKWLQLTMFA
UniProt Q96K31: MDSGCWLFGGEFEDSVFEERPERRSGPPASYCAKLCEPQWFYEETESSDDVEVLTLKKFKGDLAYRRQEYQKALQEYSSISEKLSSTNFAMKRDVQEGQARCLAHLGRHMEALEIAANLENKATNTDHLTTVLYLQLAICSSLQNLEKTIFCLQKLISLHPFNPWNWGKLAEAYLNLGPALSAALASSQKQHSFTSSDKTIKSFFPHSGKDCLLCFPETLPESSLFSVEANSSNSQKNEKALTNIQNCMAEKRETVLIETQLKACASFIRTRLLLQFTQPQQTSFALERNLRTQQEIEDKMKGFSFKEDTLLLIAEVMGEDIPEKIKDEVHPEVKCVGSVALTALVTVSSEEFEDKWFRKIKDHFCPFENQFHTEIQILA
UniProt Q07021: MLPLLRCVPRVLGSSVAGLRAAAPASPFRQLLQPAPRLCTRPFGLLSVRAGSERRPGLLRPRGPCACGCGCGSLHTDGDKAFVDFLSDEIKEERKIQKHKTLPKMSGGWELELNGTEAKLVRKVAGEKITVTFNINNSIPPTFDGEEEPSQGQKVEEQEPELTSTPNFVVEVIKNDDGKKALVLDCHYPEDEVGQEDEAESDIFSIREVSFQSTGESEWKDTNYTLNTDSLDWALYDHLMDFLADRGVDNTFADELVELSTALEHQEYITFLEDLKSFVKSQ
UniProt P00915: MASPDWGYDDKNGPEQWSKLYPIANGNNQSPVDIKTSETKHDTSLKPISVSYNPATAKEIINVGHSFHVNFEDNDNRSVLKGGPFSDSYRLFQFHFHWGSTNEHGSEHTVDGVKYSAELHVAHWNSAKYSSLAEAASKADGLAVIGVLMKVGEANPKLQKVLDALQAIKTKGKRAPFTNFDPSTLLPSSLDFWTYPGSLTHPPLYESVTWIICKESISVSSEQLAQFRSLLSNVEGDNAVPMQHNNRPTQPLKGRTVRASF
UniProt Q6P1X6: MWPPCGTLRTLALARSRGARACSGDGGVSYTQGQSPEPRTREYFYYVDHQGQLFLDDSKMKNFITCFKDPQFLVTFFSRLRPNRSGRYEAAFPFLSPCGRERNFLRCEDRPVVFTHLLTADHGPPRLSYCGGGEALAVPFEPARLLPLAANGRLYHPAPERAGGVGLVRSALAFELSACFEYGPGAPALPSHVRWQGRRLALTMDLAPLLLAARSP
UniProt O60566, whole entry, looked up: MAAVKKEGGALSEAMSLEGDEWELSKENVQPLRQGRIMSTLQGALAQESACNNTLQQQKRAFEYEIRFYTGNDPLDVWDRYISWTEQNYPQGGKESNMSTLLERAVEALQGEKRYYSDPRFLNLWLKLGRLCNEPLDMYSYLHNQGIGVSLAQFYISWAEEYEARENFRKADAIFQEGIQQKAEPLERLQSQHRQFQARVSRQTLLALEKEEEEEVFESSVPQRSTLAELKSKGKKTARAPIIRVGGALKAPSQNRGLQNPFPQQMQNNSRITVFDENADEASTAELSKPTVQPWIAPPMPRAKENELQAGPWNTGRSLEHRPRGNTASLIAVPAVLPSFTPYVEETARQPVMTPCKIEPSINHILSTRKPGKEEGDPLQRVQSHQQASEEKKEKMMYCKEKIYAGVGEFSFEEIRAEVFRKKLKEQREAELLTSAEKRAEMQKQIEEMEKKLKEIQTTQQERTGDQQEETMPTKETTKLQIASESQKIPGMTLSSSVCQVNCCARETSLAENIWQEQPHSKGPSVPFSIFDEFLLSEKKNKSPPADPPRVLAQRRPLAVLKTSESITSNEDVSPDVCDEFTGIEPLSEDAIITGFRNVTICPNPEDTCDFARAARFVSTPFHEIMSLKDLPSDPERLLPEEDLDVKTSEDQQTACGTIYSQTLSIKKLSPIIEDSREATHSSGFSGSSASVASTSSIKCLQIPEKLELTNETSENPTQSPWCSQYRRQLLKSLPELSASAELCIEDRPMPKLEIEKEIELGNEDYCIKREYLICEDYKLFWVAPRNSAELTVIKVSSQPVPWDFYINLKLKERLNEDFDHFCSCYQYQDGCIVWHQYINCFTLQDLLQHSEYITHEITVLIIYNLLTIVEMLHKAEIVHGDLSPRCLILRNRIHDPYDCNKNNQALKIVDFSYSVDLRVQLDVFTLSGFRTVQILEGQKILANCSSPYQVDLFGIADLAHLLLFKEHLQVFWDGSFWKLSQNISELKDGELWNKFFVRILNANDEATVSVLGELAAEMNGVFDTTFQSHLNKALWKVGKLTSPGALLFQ
UniProt Q96N11, whole entry, looked up: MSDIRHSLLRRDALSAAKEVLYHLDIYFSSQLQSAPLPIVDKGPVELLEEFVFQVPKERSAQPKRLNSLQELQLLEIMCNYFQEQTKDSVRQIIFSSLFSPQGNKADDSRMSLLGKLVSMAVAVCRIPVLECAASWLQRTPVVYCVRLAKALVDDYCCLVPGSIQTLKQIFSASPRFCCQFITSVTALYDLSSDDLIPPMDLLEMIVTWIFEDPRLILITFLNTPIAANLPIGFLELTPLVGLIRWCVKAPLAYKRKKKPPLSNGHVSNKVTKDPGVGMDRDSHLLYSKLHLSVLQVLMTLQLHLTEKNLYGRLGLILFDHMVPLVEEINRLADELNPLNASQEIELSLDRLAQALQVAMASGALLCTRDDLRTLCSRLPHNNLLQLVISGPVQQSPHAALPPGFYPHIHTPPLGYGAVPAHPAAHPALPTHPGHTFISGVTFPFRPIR

log2 fold change, inactive:
CANX isoform 2 (UniProt P27824) -0.004
C2orf49 (UniProt Q9BVC5) -0.041
CAPZA2 (UniProt P47755) -0.028
C9orf40 (UniProt Q8IXQ3) 0
C15orf40 (UniProt Q8WUR7) -0.02
CALU isoform 4 (UniProt O43852) 0.025
C7orf25 isoform 2 (UniProt Q9BPX7) -0.05
CAPG (UniProt P40121) 0.01
CAPZA1 (UniProt P52907) -0.015
CAPN1 (UniProt P07384) 0.02
C8orf76 (UniProt Q96K31) -0.051
C1QBP (UniProt Q07021) 0.044
CA1 (UniProt P00915) -0.021
C8orf82 (UniProt Q6P1X6) -0.014
BUB1B isoform 3 (UniProt O60566) 0.013
C20orf27 isoform 2 (UniProt Q9GZN8) 0.044
C7orf26 (UniProt Q96N11) 0.205

Retrieved one by one from above, two records:
log2 fold change, inactive:
CAPZA2 (UniProt P47755) -0.028
C1QBP (UniProt Q07021) 0.044

— the supplement of paper PMC10849652
